# Measurements as given in publication PMC8469962, “Unusual Bicyclo[3.2.1]Octanoid Neolignans from Leaves of Piper crocatum and Their Effect on Pyruvate Dehydrogenase Activity” (Plants, 2021).
# Tested on: PDHE1α S300 phosphorylation
# Experiment: Pyruvate dehydrogenase complex (PDH) cellular activity: immunofluorescence of p-PDH E1α (Ser300) in AD-293 cells
# Type: cell-based, Human
# Conditions: 60 µM compound versus 5 mM DCA
# Protocol: Point two percent gelatin was added to a black 96-well plate with a clear bottom and incubated for 1 h. Afterwards, the plate was washed with growth media. Human AD-293 cells, derived from the HEK293 cells, were seeded into black 96-well plates with a clear bottom and grown for 24 h. Compounds were then added and incubated for 24 h. The cells were then fixed with 2% paraformaldehyde, and permeabilized anti-PDHE1 pSer300 (Merk Millipore, Burlington, MA, AP1064) was added and incubated overnight. Next, the cells were washed and Alexa fluor 488, goat anti-rabbit ab (Invitrogen, Waltham, MA, A11008) was added with Hoechst 33,258 (Invitrogen, H3569) and incubated for 2 h. Finally, cells were washed, and the plates were measured in Operetta (PerkinElmer, Waltham, MA). The raw data were normalized for the pharmacological inhibitor control (5 mM dichloroacetate (DCA)) and percentage effect values using the software package Harmony High-Content Imaging and Analysis Software 3.1. Dose response curves were generated by plotting the percentage effect values and IC50 values were calculated via GraphPad Prism 6.
row,Compound,"consumption of compound, times lower than that of DCA [times]"
1,"C=CCC12C=C(OC)C(=O)C(OC)(C(c3cc(OC)c(OC4OC(CO)C(O)C(O)C4O)c(OC)c3)C1C)C2O [Compound 2, (1′R,2′R,3′S,7S,8R)-∆^5′^,8′-2′-hydroxy-3,5,3′,5′-tetramethoxyl-4′-oxo-8.1′7.3′-neolignan-4-O-β-D-glucopyranoside]",83
2,"C=CCC1=CC2(OC)C(C)C(c3cc(OC)c(OC4OC(CO)C(O)C(O)C4O)c(OC)c3)C(OC)(C1=O)C2O [Compound 3, (1′R,2′S,3′R,7S,8R)-∆^5′^8′-2′-hydroxy-3,5,1′,3′-tetramethoxyl-4′-oxo-8.1′7.3′-neolignan-4-O-β-D-glucopyranoside]",83
